Test results: patent US20240115742A1, “FLUORINATED FIBERS FOR MULTIMODAL 1H AND 19F MRI, ULTRASOUND, FLUORESCENCE DETECTION AND CONFORMATIONAL AND TEMPERATURE DETECTION BY 19F MRS” (New York University, priority 2022, published 2024)

Key:
[1] = Phantom 19F MRS on 7-T MRI scanner; conditions: 7-T, 19F
[2] = ATR-FTIR peak deconvolution of secondary structure; format: physicochemical; conditions: for Turns/Coils (%) / α-helix (%) / β-sheet(%): 2 mM
Method: Attenuated Total Reflectance-Fourier Transform Infrared Spectroscopy. Secondary structure of protein fiber variants was confirmed using attenuated total reflectance-Fourier transform infrared (ATR-FTIR) spectroscopy using the Nicolet 6700 Fourier Transform Infrared Spectrometer equipped with a diamond ATR accessory and a mercury cadmium telluride (MCT)-A detector. Spectra were collected for 5 μL of 500 μM protein from 4000-400 cm^−1 with 0.5 cm^−1 increments at room temperature (RT). For CCM bound protein, protein was bound at a final concentration of 500 μM and saturated with CCM as determined by fluorescent spectroscopic drug binding with a final 1% v/v DMSO. Sample spectra were normalized using buffer background and analyzed from 1700-1600 cm^−1 corresponding to the amide I region. Peaks were deconvoluted using Gaussian functions in PeakFit software until the goodness of fit reached r^2≥0.99. Peaks were associated with secondary structure were determined by methods known in the art.
(§1) Attenuated Total Reflectance-Fourier Transform Infrared Spectroscopy. Secondary structure of Q2 protein was confirmed using attenuated total reflectance-Fourier transform infrared (ATR-FTIR) spectroscopy using the Nicolet 6700 Fourier Transform Infrared Spectrometer equipped with a diamond ATR accessory and a mercury cadmium telluride (MCT)-A detector. Spectra were collected for 5 μL of 2 mM protein from 4000-400 cm^−1 with 0.5 cm^−1 increments. Sample spectra were normalized using buffer background and analyzed from 1700-1600 cm^−1 corresponding to the amide I region. Peaks were deconvoluted using Gaussian functions in PeakFit software until the goodness of fit reached r^2>0.99.
as §1, with “of Q2LTF and QLTF” for “of Q2”, “using a” for “using the”, “of 1” for “of 2”, “with 4.0” for “with 0.5”, “reached r^2≥0.99.” for “reached r^2>0.99.”
Attenuated Total Reflectance-Fourier Transform Infrared Spectroscopy. Secondary structure before (solution) and after gelation (gel) was also assessed by peak deconvolution of attenuated total reflectance-Fourier transform infrared (ATR-FTIR) spectra. ATR-FTIR measurements were performed using a Nicolet 6700 Fourier Transform Infrared Spectrometer equipped with a mercury cadmium telluride (MCT)-A detector. Spectra were collected for 5 μL samples of protein at 2 mM from 4000-400 cm^−1 with a 4.0 cm^−1 resolution, normalized, and buffer-subtracted prior to analysis from 1700-1600 cm^−1, corresponding to the amide I region. ATR-FTIR measurements were performed immediately after concentration to 2 mM for solution measurements and after. Peaks were deconvoluted using Gaussian functions in PeakFit software until the goodness of fit reached r^2≥0.99.

[3] = Passive microrheology (multiple particle tracking); format: physicochemical; conditions: 2 mM, 4 °C
Method: Microrheology. Protein was concentrated to 2 mM, as measured by BCA assay, and immediately aliquoted 27.7 μL into a 200 μL PCR tube. 1% v/v (or 0.3 μL) of […] red polystyrene fluorometric beads (FluoSpheres) were then added to the sample. A glass capillary tube was then loaded with sample by capillary action and sealed to prevent evaporation while being affixed to a microscopy slide using two-component fast-curing epoxy (JB Weld). Samples were then imaged at 0 h as a starting measurement and then every 12 h using a Leica DMI4000b inverted microscope equipped with a Leica DFC310 FX 1.4 megapixel camera at 40× magnification with 2×2 binning. Between imaging, slides were incubated on a rotisserie at 8 rpm to prevent sedimentation of the fluorometric beads. Each image series was recorded for a total of 300 frames with a lag time (i) of 0.037 s between each frame. Relaxation exponents i.e. the logarithmic slopes of particle mean-squared displacements (MSDs) with respect to lag time as determined by multiple particle tracking (MPT) analysis were used to determine when equilibration of the hydrogel was complete and measurements were no longer recorded (60 h in this case). Images were stacked and converted to grayscale in MATLAB (Mathworks, R2021a) using code developed in-house, with MPT then being employed using MATLAB code developed and modified by Dufresene, Kilfoil, Blair, and O'Neill as described previously.
Gelation kinetics of the hydrogels were assessed using passive microrheology (FIG. 61a-e). Time to gelation was measured immediately after concentration to 2 mM at 4° C. by incubating with 1 μm fluorescent tracer beads added to the protein in solution state at a final concentration of 1% (v/v). […] Mean square displacements (MSDs) of bead trajectories were analyzed periodically per the span of respective protein gelation times. An initial MSD-τ curve corresponding to a solution at 1.00 μm^2 s^−1 (consistent with Brownian motion) was used as the master solution curve and the final MSD-τ curve measured per protein gelation was selected as the master gel curve. Intermediate MSD-τ curves measured were superimposed onto either the master solution or master gel curve using horizontal and vertical shift factors, a and b, respectively. The window of sol-gel transition was determined between where a divergence in superposition occurred for each protein gelation.
Microrheology. Microrheology was used to assess gelation kinetics as described previously. Immediately after concentration to 2 mM, 29.7 uL were aliquoted with 0.3 uL of 1 um diameter FluoSpheres and loaded into glass capillary tubes (VitroCom). Samples were then imaged using an inverted fluorescent microscope (ZEISS Microscopy) at 40× magnification with 2×2 binning. Samples were incubated at 4° C. on a rotisserie at 8 rpm between measurements and imaged incrementally at select time points. […] Images were stacked, converted to greyscale, and analyzed with multiple particle tracking (MPT) in MATLAB (Mathworks, R2021a). Prior to other experiments of hydrogels in the gel state, microrheology here was used to confirm its complete transition.

[4] = Circular dichroism wavelength scans; format: physicochemical

Row | Molecule | Turns/Coils (%) ([2]; Gel) | α-helix (%) ([2]; Gel) | β-sheet(%) ([2]; Gel) | Turns/Coils (%) ([2]; Solution) | α-helix (%) ([2]; Solution) | β-sheet(%) ([2]; Solution) | critical gelation time, tc (tgel) [3] | critical relaxation exponent, nc [3] | θ222/θ208 ([4]; Gel) | θ208 ([4]; Gel, 15 μM, 4 °C) | θ222 ([4]; Gel, 15 μM, 4 °C) | θ208 ([4]; Solution, 15 μM, 4 °C) | θ222 ([4]; Solution, 15 μM, 4 °C) | MRE minimum at 208 nm ([4]; solution) | MRE minimum at 222 nm ([4]; solution) | θ222/θ208 ([4]; solution) | further results
1 | O=C(O)C(F)(F)F [TFA, trifluoroacetic acid, reference compound] | – | – | – | – | – | – | – | – | – | – | – | – | – | – | – | – | concentration reaching limit of detection (LOD 5.3) [1]: 130 µM
2 | Q3: Q variant with V44I pore mutation, SEQ ID NO: 12 (MRGSHHHHHHGSIEGRVKEILFLKNTAYQMLLELKETNEALYDIRHLLQQQSKL) [Protein Q3] | 19.3 ± 3.2 | 34.1 ± 6.1 | 46.5 ± 3.8 | 21.0 ± 3.5 | 32.1 ± 6.1 | 46.9 ± 4.2 | 58 ± 0.4 h | 0.52 ± 0.01 | 2.3 ± 0.3 | −2,000 ± 0 mdeg · cm^2 · dmol^−1 | −4,000 ± 1,000 mdeg · cm^2 · dmol^−1 | −2,000 ± 1,000 mdeg · cm^2 · dmol^−1 | −3,000 ± 1,000 mdeg · cm^2 · dmol^−1 | −2,500±900 deg cm^2 dmol^−1 | −3,000±900 deg cm^2 dmol^−1 | 1.2 ± 0.1 | 3-10 Helix ([2]; native): 13.6%; Turns/Coils (combined, random content) ([2]; native): 18.8 ± 5.9%; Unordered ([2]; native): 0.0%; α-helix ([2]; native): 41.1%; β-sheet ([2]; native): 33.4%; β-sheet (combined) ([2]; native): 40.1 ± 5.9%; 3-10 Helix ([2]; w/CCM): 18.3%; Turns/Coils (combined) ([2]; w/CCM): 36.1 ± 17.5%; Unordered ([2]; w/CCM): 0.0%; α-helix ([2]; w/CCM): 34.3%; β-sheet ([2]; w/CCM): 22.0%; β-sheet (combined) ([2]; w/CCM): 29.6 ± 11.3%; θ208 ([4]; 25 °C, 15 μM, pH 4.0): −19,000 ± 3,000 mdeg · cm^2 · dmol^−1; θ222 ([4]; 25 °C, 15 μM, pH 4.0): −20,000 ± 2,000 mdeg · cm^2 · dmol^−1; θ222/θ208 ([4]; 25 °C, 15 μM, pH 4.0): 1.08 ± 0.08
3 | Q5: Q hydrogel variant from Rosetta Monte Carlo search, SEQ ID NO: 14 (MRGSHHHHHHGSIEGRVKEITFIKKTIEQIAEEMKEINKAIHDIRHALENISKK) [Protein Q5] | 10.0 ± 8.7 | 41.2 ± 3.8 | 48.6 ± 6.3 | 16.1 ± 0.6 | 39.8 ± 0.7 | 44.2 ± 0.2 | 11.5 h and 11.5 ± 1.5 h | 0.49±0.02 | 1.6 ± 0.1 | −5,000 ± 1,000 mdeg · cm^2 · dmol^−1 | −8,000 ± 2,000 mdeg · cm^2 · dmol^−1 | −16,000 ± 2,000 mdeg · cm^2 · dmol^−1 | −18,000 ± 1,000 mdeg · cm^2 · dmol^−1 | −15,600±1,800 deg cm^2 dmol^−1 | −18,300±1,000 deg cm^2 dmol^−1 | 1.2 ± 0.1 | –
4 | Q4: Q hydrogel variant from Rosetta Monte Carlo search, SEQ ID NO: 13 (MRGSHHHHHHGSIEGRVKEITFIKKTIEQIAEEMKEINKAIHDIRHALENISKK) [Protein Q4] | 16.8 ± 3.5 | 34.7 ± 6.0 | 48.6 ± 4.2 | 15.2 ± 9.4 | 42.2 ± 8.8 | 45.2 ± 7.2 | 21.6 ± 2 h and 21.6 ± 2.0 h | 0.56±0.03 | 1.4 ± 0.2 | −5,000 ± 1,000 mdeg · cm^2 · dmol^−1 | −5,000 ± 1,000 mdeg · cm^2 · dmol^−1 | −6,000 ± 1,000 mdeg · cm^2 · dmol^−1 | −7,000 ± 1,000 mdeg · cm^2 · dmol^−1 | −5,600±1,400 deg cm^2 dmol^−1 | 7,100±800 deg cm^2 dmol^−1 | 1.3 ± 0.3 | –

Values joined by “and” are separate entries in the source; they are usually repeats but may differ in a detail not shown here. Identical values can stand only once. Counter-ions that a name gives are not always drawn.
